In ChEMBL document CHEMBL4316593 (Eur J Med Chem, 2019):
The source gives many values for each of these; only a part stands here.

Assays:
Format in all cases: cell-based
Conditions in all cases: U-87MG ATCC
[1] = Inhibition of RTK/PI3K/AKT/mTOR signaling in human U87 cells assessed as down regulation of CYP4F11 gene expression at cytotoxic IC50 measured after 48 hrs relative to control
[2] = Inhibition of RTK/PI3K/AKT/mTOR signaling in human U87 cells assessed as down regulation of CSNK1G1 gene expression at cytotoxic IC50 measured after 48 hrs relative to control
[3] = Inhibition of RTK/PI3K/AKT/mTOR signaling in human U87 cells assessed as up regulation of CHRD gene expression at cytotoxic IC50 measured after 48 hrs relative to control
[4] = Inhibition of RTK/PI3K/AKT/mTOR signaling in human U87 cells assessed as down regulation of GPS1 gene expression at cytotoxic IC50 measured after 48 hrs relative to control
[5] = Inhibition of RTK/PI3K/AKT/mTOR signaling in human U87 cells assessed as down regulation of PPP2CB gene expression at cytotoxic IC50 measured after 48 hrs relative to control
[6] = Inhibition of RTK/PI3K/AKT/mTOR signaling in human U87 cells assessed as up regulation of TOP1MT gene expression at cytotoxic IC50 measured after 48 hrs relative to control
[7] = Inhibition of RTK/PI3K/AKT/mTOR signaling in human U87 cells assessed as down regulation of WNT9A gene expression at cytotoxic IC50 measured after 48 hrs relative to control
[8] = Inhibition of RTK/PI3K/AKT/mTOR signaling in human U87 cells assessed as up regulation of TRPV6 gene expression at cytotoxic IC50 measured after 48 hrs relative to control
[9] = Inhibition of RTK/PI3K/AKT/mTOR signaling in human U87 cells assessed as down regulation of UBLCP1 gene expression at cytotoxic IC50 measured after 48 hrs relative to control
[10] = Inhibition of RTK/PI3K/AKT/mTOR signaling in human U87 cells assessed as up regulation of THSD4 gene expression at cytotoxic IC50 measured after 48 hrs relative to control
[11] = Inhibition of RTK/PI3K/AKT/mTOR signaling in human U87 cells assessed as up regulation of SMPDL3B gene expression at cytotoxic IC50 measured after 48 hrs relative to control
[12] = Inhibition of RTK/PI3K/AKT/mTOR signaling in human U87 cells assessed as up regulation of PLEKHG2 gene expression at cytotoxic IC50 measured after 48 hrs relative to control
[13] = Inhibition of RTK/PI3K/AKT/mTOR signaling in human U87 cells assessed as up regulation of pyruvate kinase, muscle gene expression at cytotoxic IC50 measured after 48 hrs relative to control
[14] = Inhibition of RTK/PI3K/AKT/mTOR signaling in human U87 cells assessed as up regulation of ectonucleoside triphosphate diphosphohydrolase 6 (putative) gene expression at cytotoxic IC50 measured after 48 hrs relative to control
[15] = Inhibition of RTK/PI3K/AKT/mTOR signaling in human U87 cells assessed as down regulation of NASP gene expression at cytotoxic IC50 measured after 48 hrs relative to control
[16] = Inhibition of RTK/PI3K/AKT/mTOR signaling in human U87 cells assessed as up regulation of septin 2 gene expression at cytotoxic IC50 measured after 48 hrs relative to control
[17] = Inhibition of RTK/PI3K/AKT/mTOR signaling in human U87 cells assessed as down regulation of SPECC1 gene expression at cytotoxic IC50 measured after 48 hrs relative to control
[18] = Inhibition of RTK/PI3K/AKT/mTOR signaling in human U87 cells assessed as down regulation of DHX29 gene expression at cytotoxic IC50 measured after 48 hrs relative to control
[19] = Inhibition of RTK/PI3K/AKT/mTOR signaling in human U87 cells assessed as up regulation of Rap guanine nucleotide exchange factor like 1 gene expression at cytotoxic IC50 measured after 48 hrs relative to control
[20] = Inhibition of RTK/PI3K/AKT/mTOR signaling in human U87 cells assessed as up regulation of AKAP1 gene expression at cytotoxic IC50 measured after 48 hrs relative to control
[21] = Inhibition of RTK/PI3K/AKT/mTOR signaling in human U87 cells assessed as down regulation of SLC25A22 gene expression at cytotoxic IC50 measured after 48 hrs relative to control
[22] = Inhibition of RTK/PI3K/AKT/mTOR signaling in human U87 cells assessed as down regulation of TUBA1A gene expression at cytotoxic IC50 measured after 48 hrs relative to control
[23] = Inhibition of RTK/PI3K/AKT/mTOR signaling in human U87 cells assessed as up regulation of cytochrome b-245 alpha chain gene expression at cytotoxic IC50 measured after 48 hrs relative to control
[24] = Inhibition of RTK/PI3K/AKT/mTOR signaling in human U87 cells assessed as down regulation of DECR1 gene expression at cytotoxic IC50 measured after 48 hrs relative to control
[25] = Inhibition of RTK/PI3K/AKT/mTOR signaling in human U87 cells assessed as down regulation of CRTC2 gene expression at cytotoxic IC50 measured after 48 hrs relative to control
[26] = Inhibition of RTK/PI3K/AKT/mTOR signaling in human U87 cells assessed as down regulation of MAFB gene expression at cytotoxic IC50 measured after 48 hrs relative to control
[27] = Inhibition of RTK/PI3K/AKT/mTOR signaling in human U87 cells assessed as down regulation of RNR2 gene expression at cytotoxic IC50 measured after 48 hrs relative to control
[28] = Inhibition of RTK/PI3K/AKT/mTOR signaling in human U87 cells assessed as down regulation of PHKG2 gene expression at cytotoxic IC50 measured after 48 hrs relative to control
[29] = Inhibition of RTK/PI3K/AKT/mTOR signaling in human U87 cells assessed as up regulation of MISP gene expression at cytotoxic IC50 measured after 48 hrs relative to control
[30] = Inhibition of RTK/PI3K/AKT/mTOR signaling in human U87 cells assessed as down regulation of C5orf34 gene expression at cytotoxic IC50 measured after 48 hrs relative to control
[31] = Inhibition of RTK/PI3K/AKT/mTOR signaling in human U87 cells assessed as down regulation of SECISBP2L gene expression at cytotoxic IC50 measured after 48 hrs relative to control
[32] = Inhibition of RTK/PI3K/AKT/mTOR signaling in human U87 cells assessed as up regulation of histocompatibility minor 13 gene expression at cytotoxic IC50 measured after 48 hrs relative to control

## CC(=O)C(=NNc1ccccc1C#N)C(C)=O
[1]
  log2FC: -1.38
[2]
  log2FC: -0.555
[3]
  log2FC: 1.63
[4]
  log2FC: -0.588
[5]
  log2FC: -0.723
[6]
  log2FC: 0.543
[7]
  log2FC: -1.49
[8]
  log2FC: 2.88
[9]
  log2FC: -0.796
[10]
  log2FC: 1.85
[11]
  log2FC: 1.93
[12]
  log2FC: 2.26
[13]
  log2FC: 0.908
[14]
  log2FC: 1.06
[15]
  log2FC: -0.809
[16]
  log2FC: 0.647
[17]
  log2FC: -0.964
[18]
  log2FC: -0.878
[19]
  log2FC: 1.21
[20]
  log2FC: 1.6
[21]
  log2FC: -0.638
[22]
  log2FC: -0.812
[23]
  log2FC: 0.815
[24]
  log2FC: -0.866
[25]
  log2FC: -0.521
[26]
  log2FC: -3.34
[27]
  log2FC: -1.47
[28]
  log2FC: -1.08
[29]
  log2FC: 2.1
[30]
  log2FC: -2.63
[31]
  log2FC: -0.692
[32]
  log2FC: 0.649
